Consider 15 targets from the supplement of paper PMC6411743.

Chains of the proteins cited; added tags and fusions are not shown. Lines headed by an entry give the natural chain unless they say otherwise; changes in a name come on top.
UniProt P43487, whole entry: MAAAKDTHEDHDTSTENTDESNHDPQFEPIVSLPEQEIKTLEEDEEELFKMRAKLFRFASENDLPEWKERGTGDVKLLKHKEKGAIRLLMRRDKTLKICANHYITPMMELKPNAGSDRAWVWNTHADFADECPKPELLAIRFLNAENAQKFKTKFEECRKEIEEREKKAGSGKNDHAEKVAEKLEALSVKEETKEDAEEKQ
UniProt P49721: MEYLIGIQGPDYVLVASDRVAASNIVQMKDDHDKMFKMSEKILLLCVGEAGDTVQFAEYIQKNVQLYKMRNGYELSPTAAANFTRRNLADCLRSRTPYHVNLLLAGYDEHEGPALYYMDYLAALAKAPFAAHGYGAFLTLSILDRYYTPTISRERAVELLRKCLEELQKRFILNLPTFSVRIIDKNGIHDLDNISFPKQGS
UniProt P50502: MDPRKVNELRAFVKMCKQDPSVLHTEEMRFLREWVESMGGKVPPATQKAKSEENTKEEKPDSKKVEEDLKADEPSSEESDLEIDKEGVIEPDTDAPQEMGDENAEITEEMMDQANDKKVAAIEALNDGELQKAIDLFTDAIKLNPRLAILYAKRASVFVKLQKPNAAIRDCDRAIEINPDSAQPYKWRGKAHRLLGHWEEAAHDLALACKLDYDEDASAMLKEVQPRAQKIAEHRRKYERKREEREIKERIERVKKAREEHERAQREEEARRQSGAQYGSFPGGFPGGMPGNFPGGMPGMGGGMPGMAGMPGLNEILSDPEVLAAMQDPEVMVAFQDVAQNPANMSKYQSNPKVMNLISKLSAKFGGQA
UniProt P40818: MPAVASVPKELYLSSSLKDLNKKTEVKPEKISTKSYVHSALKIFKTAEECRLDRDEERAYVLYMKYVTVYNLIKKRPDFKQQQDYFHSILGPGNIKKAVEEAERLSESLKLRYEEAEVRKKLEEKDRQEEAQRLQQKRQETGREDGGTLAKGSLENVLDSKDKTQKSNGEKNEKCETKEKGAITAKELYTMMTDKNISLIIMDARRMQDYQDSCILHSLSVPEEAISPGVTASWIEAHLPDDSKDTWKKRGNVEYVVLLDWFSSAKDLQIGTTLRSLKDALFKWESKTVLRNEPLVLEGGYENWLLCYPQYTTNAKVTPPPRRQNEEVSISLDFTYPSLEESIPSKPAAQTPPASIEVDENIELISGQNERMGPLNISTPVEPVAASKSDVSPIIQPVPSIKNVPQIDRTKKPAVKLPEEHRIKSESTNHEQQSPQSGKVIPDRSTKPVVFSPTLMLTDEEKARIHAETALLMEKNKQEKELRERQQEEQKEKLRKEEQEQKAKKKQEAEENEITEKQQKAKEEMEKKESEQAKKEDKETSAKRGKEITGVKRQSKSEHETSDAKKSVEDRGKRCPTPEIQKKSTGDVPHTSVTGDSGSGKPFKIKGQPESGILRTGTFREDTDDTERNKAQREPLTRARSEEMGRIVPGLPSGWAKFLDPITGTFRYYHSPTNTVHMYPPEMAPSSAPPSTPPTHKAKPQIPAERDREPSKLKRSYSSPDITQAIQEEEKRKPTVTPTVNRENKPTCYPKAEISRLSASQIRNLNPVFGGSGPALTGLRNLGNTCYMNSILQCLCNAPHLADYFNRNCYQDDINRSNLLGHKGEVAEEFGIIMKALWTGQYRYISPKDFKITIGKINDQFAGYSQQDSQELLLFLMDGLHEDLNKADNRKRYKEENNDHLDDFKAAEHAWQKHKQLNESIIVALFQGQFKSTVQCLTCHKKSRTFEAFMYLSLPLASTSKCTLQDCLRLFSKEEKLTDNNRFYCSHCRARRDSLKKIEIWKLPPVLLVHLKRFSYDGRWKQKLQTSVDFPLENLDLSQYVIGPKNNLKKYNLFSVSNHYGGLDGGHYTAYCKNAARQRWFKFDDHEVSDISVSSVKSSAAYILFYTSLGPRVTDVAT
UniProt P50583: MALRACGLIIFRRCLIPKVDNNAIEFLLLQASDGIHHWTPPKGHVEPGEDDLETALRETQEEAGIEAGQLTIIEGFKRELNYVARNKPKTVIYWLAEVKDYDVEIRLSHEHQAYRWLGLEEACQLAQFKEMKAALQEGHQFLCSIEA
UniProt P50148, whole entry: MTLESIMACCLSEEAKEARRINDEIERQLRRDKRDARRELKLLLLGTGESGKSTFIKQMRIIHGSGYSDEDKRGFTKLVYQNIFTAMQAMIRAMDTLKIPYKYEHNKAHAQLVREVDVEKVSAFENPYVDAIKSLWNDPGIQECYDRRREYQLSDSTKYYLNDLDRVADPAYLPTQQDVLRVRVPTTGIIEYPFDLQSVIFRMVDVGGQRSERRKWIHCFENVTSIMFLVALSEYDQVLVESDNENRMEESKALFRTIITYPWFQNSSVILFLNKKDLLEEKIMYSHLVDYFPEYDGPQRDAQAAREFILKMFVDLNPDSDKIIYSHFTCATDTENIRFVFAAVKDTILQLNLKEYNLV
UniProt P52655, whole entry: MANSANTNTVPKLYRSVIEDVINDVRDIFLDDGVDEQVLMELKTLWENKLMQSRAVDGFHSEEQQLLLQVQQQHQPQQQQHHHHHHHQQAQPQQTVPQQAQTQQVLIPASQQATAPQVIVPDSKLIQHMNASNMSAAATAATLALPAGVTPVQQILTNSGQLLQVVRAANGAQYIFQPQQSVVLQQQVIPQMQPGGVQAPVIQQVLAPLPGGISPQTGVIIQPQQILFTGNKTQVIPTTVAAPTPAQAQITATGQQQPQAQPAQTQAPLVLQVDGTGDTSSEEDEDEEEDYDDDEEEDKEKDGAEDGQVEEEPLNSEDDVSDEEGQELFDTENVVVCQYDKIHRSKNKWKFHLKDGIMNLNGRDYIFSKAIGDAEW
UniProt P40925: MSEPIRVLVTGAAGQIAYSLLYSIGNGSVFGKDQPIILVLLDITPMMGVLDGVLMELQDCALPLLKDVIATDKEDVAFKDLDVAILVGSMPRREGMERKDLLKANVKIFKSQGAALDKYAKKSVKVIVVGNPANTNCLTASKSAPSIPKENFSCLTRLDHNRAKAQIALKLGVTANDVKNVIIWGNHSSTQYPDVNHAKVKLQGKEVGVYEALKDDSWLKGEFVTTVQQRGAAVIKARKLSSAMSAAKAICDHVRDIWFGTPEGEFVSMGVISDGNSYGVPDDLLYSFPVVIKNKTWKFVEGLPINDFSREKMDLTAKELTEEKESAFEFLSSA
UniProt P51858: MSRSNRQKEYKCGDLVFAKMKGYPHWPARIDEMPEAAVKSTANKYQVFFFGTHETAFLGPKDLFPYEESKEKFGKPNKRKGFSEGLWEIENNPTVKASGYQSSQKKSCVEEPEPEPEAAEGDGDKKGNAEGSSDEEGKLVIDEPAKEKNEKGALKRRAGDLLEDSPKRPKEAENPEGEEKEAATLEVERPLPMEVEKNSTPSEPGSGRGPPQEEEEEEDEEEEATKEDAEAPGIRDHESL
UniProt P49841: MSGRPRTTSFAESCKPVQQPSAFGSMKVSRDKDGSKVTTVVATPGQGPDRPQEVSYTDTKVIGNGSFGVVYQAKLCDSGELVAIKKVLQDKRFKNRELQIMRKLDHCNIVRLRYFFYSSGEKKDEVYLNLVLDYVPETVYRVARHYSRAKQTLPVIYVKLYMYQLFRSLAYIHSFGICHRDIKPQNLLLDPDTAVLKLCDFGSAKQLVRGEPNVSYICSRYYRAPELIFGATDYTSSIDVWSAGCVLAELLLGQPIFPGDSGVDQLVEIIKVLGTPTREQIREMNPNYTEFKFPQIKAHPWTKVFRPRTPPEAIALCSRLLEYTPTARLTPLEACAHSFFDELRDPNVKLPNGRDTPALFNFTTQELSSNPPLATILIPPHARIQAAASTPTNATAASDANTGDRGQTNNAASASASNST
UniProt P50552: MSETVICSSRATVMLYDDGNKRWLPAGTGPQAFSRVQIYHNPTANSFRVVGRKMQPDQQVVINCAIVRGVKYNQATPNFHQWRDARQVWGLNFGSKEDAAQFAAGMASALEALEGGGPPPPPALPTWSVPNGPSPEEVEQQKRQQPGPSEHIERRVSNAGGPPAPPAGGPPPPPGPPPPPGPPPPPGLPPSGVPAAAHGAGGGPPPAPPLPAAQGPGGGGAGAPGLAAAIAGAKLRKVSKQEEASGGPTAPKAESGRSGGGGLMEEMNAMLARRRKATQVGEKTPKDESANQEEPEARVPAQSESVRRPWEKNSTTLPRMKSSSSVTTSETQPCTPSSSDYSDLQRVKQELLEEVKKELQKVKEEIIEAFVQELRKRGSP
UniProt P49914: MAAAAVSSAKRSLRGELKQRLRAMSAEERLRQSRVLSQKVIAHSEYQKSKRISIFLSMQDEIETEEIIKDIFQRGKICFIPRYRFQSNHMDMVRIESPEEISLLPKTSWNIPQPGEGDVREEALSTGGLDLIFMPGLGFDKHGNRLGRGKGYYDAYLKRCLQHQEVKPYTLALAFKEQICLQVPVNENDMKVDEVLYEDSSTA

± gives the standard deviation of the averaged measurements. Only a part is listed here, and it is no random draw.

Compound in this assay: Nc1ncnc2c1ncn2[C@@H]1O[C@H](COP(=O)(O)OP(=O)(O)OP(=O)(O)O)[C@@H](O)[C@H]1O [adenosine triphosphate]
The assay is described as follows: NP40-soluble protein abundance relative to vehicle (solubility fold change) (ratio); higher = more soluble protein in presence of ATP. The essentials: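 In three independent experiments, Jurkat crude lysate made by Dounce homogenisation was treated for 10 min at room temperature and then 3 min at 37 °C with eight concentrations ranging from 0.1 to 10 mM. It was then solubilised with 0.8% NP40 plus benzonase for 60 min at 4 °C and ultracentrifuged. The supernatant was TMT-labelled for LC-MS/MS, and each value is the fold change against the detergent-processed vehicle for the same replicate, using vsn-normalised intensities.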

In the case of UniProt P43487 and related entries, the NP40-soluble protein abundance (concentration: 1mM) came out at 0.957 ± 0.13; the NP40-soluble protein abundance (concentration: 2mM) was determined as 0.93 ± 0.044; the NP40-soluble protein abundance (concentration: 4mM) amounted to 0.932 ± 0.038; the NP40-soluble protein abundance (concentration: 6mM) is 1.01 ± 0.08; the NP40-soluble protein abundance (concentration: 8mM) was determined as 0.937 ± 0.037; the NP40-soluble protein abundance (concentration: 10mM) was found to be 0.858 ± 0.062.
In the case of PSMB2 (UniProt P49721), the NP40-soluble protein abundance runs as follows: (concentration: 1mM) 0.944 ± 0.065; (concentration: 2mM) 0.901 ± 0.014; (concentration: 4mM) 0.8244 ± 0.0069; (concentration: 6mM) 0.863 ± 0.026; (concentration: 8mM) 0.889 ± 0.045; (concentration: 10mM) 0.848 ± 0.038.
Turning to ST13 (UniProt P50502), the NP40-soluble protein abundance by setting is: (concentration: 1mM) 0.9 ± 0.11; (concentration: 2mM) 0.885 ± 0.065; (concentration: 4mM) 0.895 ± 0.057; (concentration: 6mM) 1.01 ± 0.063; (concentration: 8mM) 0.9 ± 0.012; (concentration: 10mM) 0.855 ± 0.12.
UniProt P49750-3|P49750-4: the NP40-soluble protein abundance reads like this: (concentration: 1mM) 1.1 ± 0.056; (concentration: 2mM) 1.16 ± 0.044; (concentration: 4mM) 1.21 ± 0.046; (concentration: 6mM) 1.36 ± 0.073; (concentration: 8mM) 1.37 ± 0.015; (concentration: 10mM) 1.47 ± 0.066.
Consider USP8 (UniProt P40818), for which the NP40-soluble protein abundance (concentration: 1mM) amounted to 1 ± 0.023; the NP40-soluble protein abundance (concentration: 2mM) is 1.01 ± 0.025; the NP40-soluble protein abundance (concentration: 4mM) is 0.997 ± 0.021; the NP40-soluble protein abundance (concentration: 6mM) amounted to 1 ± 0.034; the NP40-soluble protein abundance (concentration: 8mM) worked out at 0.976 ± 0.018; the NP40-soluble protein abundance (concentration: 10mM) was found to be 0.972 ± 0.032.
NUDT2 (UniProt P50583): the NP40-soluble protein abundance (concentration: 1mM) came to 1.05 ± 0.16; the NP40-soluble protein abundance (concentration: 2mM) was found to be 0.993 ± 0.025; the NP40-soluble protein abundance (concentration: 4mM) turned out to be 0.953 ± 0.019; the NP40-soluble protein abundance (concentration: 6mM) was 0.887 ± 0.088; the NP40-soluble protein abundance (concentration: 8mM) is 0.957 ± 0.0097; the NP40-soluble protein abundance (concentration: 10mM) stood at 0.946 ± 0.027.
Turning to GNAQ (UniProt P50148), the NP40-soluble protein abundance is, setting by setting: (concentration: 1mM) 0.997 ± 0.074; (concentration: 2mM) 0.997 ± 0.064; (concentration: 4mM) 0.984 ± 0.047; (concentration: 6mM) 0.948 ± 0.11; (concentration: 8mM) 1.01 ± 0.053; (concentration: 10mM) 0.969 ± 0.048.
On to GTF2A1 (UniProt P52655), for which the NP40-soluble protein abundance (concentration: 1mM) was 0.923 ± 0.074; the NP40-soluble protein abundance (concentration: 2mM) is 0.955 ± 0.22; the NP40-soluble protein abundance (concentration: 4mM) came out at 0.905 ± 0.098; the NP40-soluble protein abundance (concentration: 6mM) turned out to be 0.981 ± 0.12; the NP40-soluble protein abundance (concentration: 8mM) came to 0.8465 ± 0.0041; the NP40-soluble protein abundance (concentration: 10mM) was found to be 0.86 ± 0.16.
As to UniProt P40925 and related entries, the NP40-soluble protein abundance is, setting by setting: (concentration: 1mM) 0.96 ± 0.049; (concentration: 2mM) 0.921 ± 0.025; (concentration: 4mM) 0.877 ± 0.035; (concentration: 6mM) 0.944 ± 0.057; (concentration: 8mM) 0.906 ± 0.054; (concentration: 10mM) 0.892 ± 0.034.
With UniProt P50053-2, the NP40-soluble protein abundance was 0.977 ± 0.073 (concentration: 1mM); 0.931 ± 0.044 (concentration: 2mM); 0.92 ± 0.035 (concentration: 4mM); 0.966 ± 0.075 (concentration: 6mM); 0.894 ± 0.083 (concentration: 8mM); 0.947 ± 0.046 (concentration: 10mM).
UniProt P46939 and related entries: the NP40-soluble protein abundance runs as follows: (concentration: 1mM) 0.967 ± 0.028; (concentration: 2mM) 0.986 ± 0.011; (concentration: 4mM) 0.9901 ± 0.0028; (concentration: 6mM) 1.01 ± 0.035; (concentration: 8mM) 0.956 ± 0.017; (concentration: 10mM) 0.9861 ± 0.0089.
Regarding HDGF (UniProt P51858), the NP40-soluble protein abundance was determined as 0.93 ± 0.083 (concentration: 1mM); 0.931 ± 0.027 (concentration: 2mM); 0.904 ± 0.026 (concentration: 4mM); 0.979 ± 0.051 (concentration: 6mM); 0.882 ± 0.011 (concentration: 8mM); 0.896 ± 0.028 (concentration: 10mM).
On to UniProt P49841 and related entries, for which the NP40-soluble protein abundance by setting is: (concentration: 1mM) 0.9348 ± 0.0052; (concentration: 2mM) 0.918 ± 0.031; (concentration: 4mM) 0.926 ± 0.019; (concentration: 6mM) 0.912 ± 0.034; (concentration: 8mM) 0.919 ± 0.035; (concentration: 10mM) 0.92 ± 0.043.
With VASP (UniProt P50552), the NP40-soluble protein abundance is, setting by setting: (concentration: 1mM) 0.952 ± 0.075; (concentration: 2mM) 0.952 ± 0.041; (concentration: 4mM) 0.942 ± 0.064; (concentration: 6mM) 0.976 ± 0.038; (concentration: 8mM) 0.915 ± 0.048; (concentration: 10mM) 0.917 ± 0.035.
With MTHFS (UniProt P49914), the NP40-soluble protein abundance amounted to 0.992 ± 0.029 (concentration: 1mM); 0.99 ± 0.038 (concentration: 2mM); 0.976 ± 0.045 (concentration: 4mM); 0.983 ± 0.071 (concentration: 6mM); 0.959 ± 0.038 (concentration: 8mM); 0.939 ± 0.036 (concentration: 10mM).
